The record followed here is PubChem BioAssay AID2685 (National Center for Advancing Translational Sciences (NCATS), 2010).

Structures are written as SMILES. This is one part of the list. The main result of the screen is listed elsewhere. These columns were measured beside it and carry no call. The list favours compounds with an active or inconclusive main result. The note in brackets gives the kind of curve behind each potency; many fits are weak.

The nature of this assay: qHTS Assay for Lipid Storage Modulators in Drosophila S3 Cells.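 As to cell number change: cells counted by Cell Tracker Red CMTPX staining in the red channel.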 The settings on record: BODIPY lipid droplet fluorescence, 18-24 h; for cell number change: measured here: cell count max response, cells fed with added oleic acid. An outline of the steps: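 Drosophila S3 cells got compounds at several concentrations plus oleic acid (400 uM solution). Laser-scanning cytometry with 488 nm excitation read lipid droplets at 500-530 nm and cells at 575-640 nm. Percent activity was relative to 20 uM Triacsin C.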
(In general: In qHTS, concentration-response curves come from the screen itself.)

[1] abbreviates: measured here: lipid fluorescence (Fed channel) AC50, cells fed with added oleic acid.
Setting [2] is: measured here: cell number channel AC50, cells fed with added oleic acid.

Usually AC50 stands for the concentration giving half of the maximal activity seen. In the case of `COc1ccccc1-n1c(SCC(=O)NC2CC2)nc2ccccc2c1=O`, the cell number change is -13%. Also, the AC50 under setting [1] was 2.31 µM [falling, full curve].
With `CCOc1cc(C)nc(N2CCN(C3CCCCC3)CC2)n1`, the cell number change is -8.29%. Moreover, under setting [1], the AC50 is 20.6 µM [rising, single point].
`Cc1cc(/C=N\NC(=O)COc2cccc3cccnc23)c(C)n1-c1ccc(Br)cc1`: under setting [1], the AC50 was 20.6 µM [rising, partial curve].
Consider `COC(=O)Cc1ccc(N(Cc2ccccc2F)S(=O)(=O)c2ccc(Cl)cc2)cc1`, for which the cell number change turned out to be 18.9%. The AC50 under setting [1] was 8.2 µM [rising, partial curve].
With `O=C(Cc1ccccc1)c1nc2ccccc2s1`, the cell number change worked out at 167%. Besides, the AC50 under setting [2] is 23.1 µM [rising, single point]. In addition, under setting [1], the AC50 is 18.4 µM [falling, single point].
Consider `COc1cc(/C=C/C(=O)Nc2nnc(C(C)(C)C)s2)cc(OC)c1OC`, for which the cell number change was -32.2%. For the same compound, the AC50 under setting [2] was 0.00461 µM [falling, full curve]. The AC50 under setting [1] was 1.03 µM [rising, partial curve].
Consider `CCCCn1c(N)c(N(CC(C)C)C(=O)c2ccc(N3C(=O)CCC3=O)cc2)c(=O)[nH]c1=O`, for which the AC50 under setting [2] was 0.116 µM [falling, full curve, poor fit].
With `O=S(=O)(Nc1nc2ccccc2nc1NCC1CCCO1)c1ccccc1` (stereo not drawn), the cell number change is 32.3%. Besides, the AC50 under setting [2] is 29.1 µM [rising, single point]. The AC50 under setting [1] is 1.16 µM [falling, full curve, poor fit].
For `Cc1ccc(C)c(N2N=C(C(=O)OCc3nnc(-c4cccs4)o3)CCC2=O)c1`, the cell number change came to 7.23%.
Turning to `CC1(C)NC(=O)N(CC(=O)OCC(=O)NC(=O)c2ccccc2)C1=O`, the cell number change is -30.2%. In addition, the AC50 under setting [2] was 9.2 µM [falling, partial curve]. For the same compound, the AC50 under setting [1] is 16.4 µM [falling, partial curve].
In the case of `CCOC(=O)CC(=O)CSc1nc2c(sc(=S)n2-c2ccc(OCC)cc2)c(=O)[nH]1`, the cell number change was -16.5%. Also, under setting [2], the AC50 is 3.66 µM [falling, single point]. For the same compound, under setting [1], the AC50 was 4.11 µM [falling, single point].
As to `COc1cc(/C=C/C(=O)OCC(=O)NC(=O)NC2CCCCC2)ccc1OC(F)F`, the cell number change stood at 3.65%. Also, the AC50 under setting [1] was 2.51 µM [falling, partial curve, poor fit].
As for `CCOC(=O)c1nnc2cc(-c3ccc(Br)cc3)nn2c1C`, the cell number change amounted to 9.53%. Besides, the AC50 under setting [1] was 0.082 µM [rising, full curve, poor fit].
For the compound `COc1ccccc1C(=O)Nc1c(C(=O)N2CCN(C)CC2)oc2ccccc12`, the AC50 under setting [1] was 18.4 µM [rising, single point].
For `O=C(O)C1CC(=O)N(Cc2ccc(F)cc2)C1` (stereo not drawn), the cell number change was found to be 19.7%. In addition, the AC50 under setting [1] is 6.51 µM [falling, single point].
Regarding `Cc1csc2nc(CNS(=O)(=O)N(C)C)cn12`, the AC50 under setting [1] is 0.103 µM [rising, full curve, poor fit].
In the case of `CC(C)(C)OC(=O)NCCCC[C@H](NC(=O)c1[nH]cnc1C(=O)Nc1ccccc1)C(=O)OC(C)(C)C`, the cell number change is -7.59%.
For `COc1ccc(C(=O)NCC2CCCO2)cc1` (stereo not drawn), the cell number change came out at 25.9%. Further, the half-maximal activity concentration (AC50) under setting [1] was 0.461 µM [rising, full curve, poor fit].
In the case of `Cc1ccc(NC(=O)CSCc2ccc(F)cc2)cc1`, the cell number change was -12.3%. Under setting [2], the AC50 is 0.13 µM [rising, full curve, poor fit].
Take `CN(C)c1ccc(C2N(C)C(=O)c3ccccc3N2C)cc1` (stereo not drawn): the AC50 under setting [1] was 29.1 µM [falling, single point].
Regarding `COc1cc(NS(=O)(=O)c2ccc(N)cc2)nc(OC)n1`, the cell number change turned out to be 35.3%. For the same compound, under setting [2], the AC50 is 16.4 µM [rising, single point]. Moreover, under setting [1], the AC50 was 20.6 µM [rising, single point].
Consider `COc1cc(Br)cc2cc(C(=O)N3CCOCC3)c(=O)oc12`, for which the cell number change turned out to be 14.2%. Moreover, under setting [1], the AC50 was 29.1 µM [rising, single point].
In the case of `Cc1ccc(NS(=O)(=O)c2c(C)[nH]c(C)c2C(=O)N2CCCC2)cc1Cl`, the cell number change is -13.4%. Besides, under setting [2], the AC50 is 7.31 µM [falling, single point].
Consider `Cc1ccc(S(=O)(=O)/C(C#N)=C/c2c(N3CCN(Cc4ccccc4)CC3)nc3ccccn3c2=O)cc1`, for which the cell number change was 23.3%. For the same compound, the AC50 under setting [1] is 6.51 µM [falling, single point].
In the case of `CC(=O)Nc1ccccc1Sc1ccc2c3c(cccc13)C(=O)N(c1ccc(C)cc1)C2=O`, the cell number change was -19.9%. In addition, under setting [2], the concentration at half-maximal activity (AC50) is 0.146 µM [rising, full curve, poor fit]. Besides, the concentration at half-maximal activity (AC50) under setting [1] was 0.116 µM [rising, full curve, poor fit].
As for `COC(=O)C1CCN(C(=O)Nc2ccccc2)CC1`, the cell number change is 4.78%. Besides, the AC50 under setting [1] was 32.6 µM [rising, single point].
For `C=CCOc1ccc(/C=C\c2nc(O)c([N+](=O)[O-])c(=O)[nH]2)cc1OC`, the cell number change was -13.2%. The half-maximal activity concentration (AC50) under setting [1] is 6.51 µM [falling, single point].
Regarding `C=CCSc1nnc2c(n1)OC(C)=Nc1ccc(Br)cc1-2`, the cell number change was found to be 108%. Also, under setting [2], the AC50 was 3.26 µM [falling, single point]. The AC50 under setting [1] was 3.66 µM [falling, single point].
For `COc1cccc(OC)c1C(=O)Nc1nnc(-c2ccc(F)cc2)s1`, the cell number change is -13.5%.
On to `COc1cc(C(c2c(C)[nH][nH]c2=O)c2c(C)[nH][nH]c2=O)ccc1OC(C)C`, for which the cell number change turned out to be 18.6%. Moreover, the AC50 under setting [1] was 29.1 µM [falling, single point].
In the case of `Cc1nc(C)c(C(=O)NNS(=O)(=O)c2ccccc2)s1`, the cell number change is 64.8%. Further, the half-maximal activity concentration (AC50) under setting [2] is 0.13 µM [rising, full curve, poor fit]. The AC50 under setting [1] is 0.116 µM [rising, full curve, poor fit].
Take `Cc1ccc(C(=O)COC(=O)C2CC3CCCC(C2)C3=O)cc1[N+](=O)[O-]` (stereo not drawn): the cell number change was -13.5%.
For the compound `Cc1ccc(CNC(=O)CCS(=O)(=O)c2cc3c(cc2C)NC(=O)CO3)cc1`, the cell number change was found to be 19.9%. Under setting [1], the half-maximal activity concentration (AC50) was 29.1 µM [rising, single point].
`CCCCN(Cc1nc2ccccc2c(=O)[nH]1)C(=O)c1nn(C)c(=O)c2ccccc12`: the cell number change was -33.5%. Also, the AC50 under setting [2] was 20.6 µM [falling, partial curve, poor fit].
As to `CCOc1ccc(-c2nnn(CC(=O)c3cc(OC)ccc3OC)n2)cc1`, the cell number change was 112%. Moreover, the half-maximal activity concentration (AC50) under setting [2] is 9.2 µM [rising, partial curve]. Besides, under setting [1], the concentration at half-maximal activity (AC50) was 0.58 µM [rising, full curve, poor fit].
Turning to `CC(C)OC(=O)c1cc2c(ccn2C)n1CC(=O)N(Cc1ccccc1)c1ccc(F)cc1`, the cell number change is -21.1%. In addition, under setting [1], the AC50 is 25.9 µM [falling, single point].
